Data from US6511848B2, “Process for producing and multiplying lymphocytes” (Winfried Albert, priority 1996, dated 2003).
At least one compound was matched to its structure with a doubt left.

How the values were obtained:
killer T cells = experiment: Multiplication of killer T cells in serum-free DF medium; format: cell-based, human; conditions: additive alone, without growth factor
Method: Mononuclear cells from peripheral blood (PBMNC) of human donors are isolated by means of gradient centrifugation (lymphocyte separation medium, BM), washed twice with phosphate-buffered saline solution and incubated at a density of 5-10×10^6 cells/ml DF medium according to Thiele and Lipsky (J. Immunol. 136 (1986) 1038-1048) with 250 μM leucyl-leucine-methyl ester (BM) for 20 minutes at room temperature. After washing with DF medium the cells are cultured at 37° C. in 8% CO2 atmosphere at a density of 1-2×10^6 per ml DF medium together with irradiated (2000 rad) HB654 cells or HB617 cells (stimulator cells; 2-5×10^5 per ml). On day 5-6 of the co-culture half to two thirds of the culture medium is renewed and irradiated stimulator cells (2-5×10^5 per ml) are added again. From day 8-10 after starting the co-culture, when all stimulator cells have been destroyed by the cytotoxic activity of the killer T cells, the killer T cells are used for the following examples. […]

[1] = system: tumour-infiltrating lymphocytes; experiment: Multiplication of tumour-infiltrating lymphocytes from human colon carcinoma fragments; format: cell-based

O=C(O)C1=CC(=C(c2ccc(O)c(C(=O)O)c2)c2ccc(O)c(C(=O)O)c2)C=CC1=O [ATA, aurintricarboxylic acid]
multiplication of killer T cells (in words) (killer T cells): do not multiply | multiplication of lymphocytic cells migrated out of tumour fragments (microscopic control) ([1]; Iscove-modified DME medium with 15% FCS, after 24-48 hours): not in the partial cultures A, B or D | number of emigrated lymphocytes compared to day 2 ([1]; after a ten day culture): remained constant
